According to the supplement of paper PMC11006884:
Shown are results outside the selection of targets with a hit, which stands elsewhere. The data scatter; read single values as rough. The list shows a part of the results, in another mix than the full data.

By UniProt entry, the sequences of proteins in these tests, tags left out. Where a name states a change or a piece, a line headed by the entry shows the natural chain unless it says otherwise.
UniProt Q9UJF2: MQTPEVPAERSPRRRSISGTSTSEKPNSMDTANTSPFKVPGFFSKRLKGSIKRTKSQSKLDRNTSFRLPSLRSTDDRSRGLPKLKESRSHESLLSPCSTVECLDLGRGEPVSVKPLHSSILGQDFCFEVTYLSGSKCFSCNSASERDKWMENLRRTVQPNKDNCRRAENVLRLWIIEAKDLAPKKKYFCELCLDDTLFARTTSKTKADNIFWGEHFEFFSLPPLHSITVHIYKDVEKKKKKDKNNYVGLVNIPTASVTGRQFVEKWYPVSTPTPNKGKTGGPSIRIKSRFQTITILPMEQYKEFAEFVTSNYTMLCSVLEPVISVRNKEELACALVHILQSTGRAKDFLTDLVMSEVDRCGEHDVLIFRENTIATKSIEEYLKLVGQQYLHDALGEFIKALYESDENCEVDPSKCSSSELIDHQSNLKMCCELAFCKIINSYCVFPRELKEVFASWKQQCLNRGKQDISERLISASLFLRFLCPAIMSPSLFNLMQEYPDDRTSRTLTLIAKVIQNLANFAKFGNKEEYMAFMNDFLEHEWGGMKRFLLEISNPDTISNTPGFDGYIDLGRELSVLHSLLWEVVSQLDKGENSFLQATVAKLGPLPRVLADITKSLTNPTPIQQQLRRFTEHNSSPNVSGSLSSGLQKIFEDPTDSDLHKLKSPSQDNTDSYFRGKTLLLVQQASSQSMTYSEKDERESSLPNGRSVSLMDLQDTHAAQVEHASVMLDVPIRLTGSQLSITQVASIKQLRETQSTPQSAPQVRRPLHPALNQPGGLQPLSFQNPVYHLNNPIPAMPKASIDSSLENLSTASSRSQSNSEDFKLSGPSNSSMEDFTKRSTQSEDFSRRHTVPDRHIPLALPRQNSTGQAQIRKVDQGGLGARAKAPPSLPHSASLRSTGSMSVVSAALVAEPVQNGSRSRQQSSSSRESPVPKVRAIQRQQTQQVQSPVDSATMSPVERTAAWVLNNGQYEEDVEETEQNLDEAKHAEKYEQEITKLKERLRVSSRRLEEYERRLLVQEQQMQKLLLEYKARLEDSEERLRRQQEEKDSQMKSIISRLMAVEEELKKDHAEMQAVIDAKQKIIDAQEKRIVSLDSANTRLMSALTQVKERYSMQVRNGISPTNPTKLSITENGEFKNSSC
UniProt Q9Y3A4: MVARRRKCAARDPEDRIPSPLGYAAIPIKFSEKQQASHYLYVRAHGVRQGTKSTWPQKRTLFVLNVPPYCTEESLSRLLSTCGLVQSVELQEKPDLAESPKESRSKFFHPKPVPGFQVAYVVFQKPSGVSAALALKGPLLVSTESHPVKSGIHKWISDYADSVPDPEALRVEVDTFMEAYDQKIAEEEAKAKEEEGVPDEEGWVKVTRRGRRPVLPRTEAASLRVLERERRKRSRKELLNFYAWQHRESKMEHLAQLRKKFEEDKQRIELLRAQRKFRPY
UniProt Q9UL46, whole entry: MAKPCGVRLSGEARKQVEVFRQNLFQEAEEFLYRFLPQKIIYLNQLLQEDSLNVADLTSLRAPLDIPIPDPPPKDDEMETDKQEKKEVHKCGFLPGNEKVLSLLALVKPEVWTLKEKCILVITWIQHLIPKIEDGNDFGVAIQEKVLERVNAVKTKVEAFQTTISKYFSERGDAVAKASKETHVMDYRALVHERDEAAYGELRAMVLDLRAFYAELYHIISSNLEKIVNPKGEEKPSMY
UniProt Q9Y223: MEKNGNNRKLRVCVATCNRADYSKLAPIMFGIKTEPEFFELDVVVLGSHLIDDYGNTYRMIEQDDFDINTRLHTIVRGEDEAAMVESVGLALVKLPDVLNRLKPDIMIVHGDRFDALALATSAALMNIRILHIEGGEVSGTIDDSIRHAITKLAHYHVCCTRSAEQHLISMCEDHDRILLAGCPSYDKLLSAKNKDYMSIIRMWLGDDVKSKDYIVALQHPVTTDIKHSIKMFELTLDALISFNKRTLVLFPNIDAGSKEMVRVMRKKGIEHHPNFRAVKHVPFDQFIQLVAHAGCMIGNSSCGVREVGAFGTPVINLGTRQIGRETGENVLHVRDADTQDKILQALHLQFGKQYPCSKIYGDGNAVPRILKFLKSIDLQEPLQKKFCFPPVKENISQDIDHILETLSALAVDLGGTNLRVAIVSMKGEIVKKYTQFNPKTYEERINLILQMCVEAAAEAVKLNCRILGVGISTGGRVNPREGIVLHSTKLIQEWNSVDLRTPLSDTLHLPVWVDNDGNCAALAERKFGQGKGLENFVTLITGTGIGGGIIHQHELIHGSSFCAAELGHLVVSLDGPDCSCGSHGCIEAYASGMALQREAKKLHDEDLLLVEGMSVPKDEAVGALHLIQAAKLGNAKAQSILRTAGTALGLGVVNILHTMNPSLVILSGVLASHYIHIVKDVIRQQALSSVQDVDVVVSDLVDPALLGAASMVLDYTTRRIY
UniProt Q9UNK0: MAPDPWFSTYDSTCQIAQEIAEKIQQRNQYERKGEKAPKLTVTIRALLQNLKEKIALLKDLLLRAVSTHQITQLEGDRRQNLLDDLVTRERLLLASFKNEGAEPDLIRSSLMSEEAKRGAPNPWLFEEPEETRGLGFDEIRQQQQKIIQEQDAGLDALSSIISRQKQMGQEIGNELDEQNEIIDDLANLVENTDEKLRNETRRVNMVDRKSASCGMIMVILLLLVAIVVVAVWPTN
UniProt Q9UKJ3: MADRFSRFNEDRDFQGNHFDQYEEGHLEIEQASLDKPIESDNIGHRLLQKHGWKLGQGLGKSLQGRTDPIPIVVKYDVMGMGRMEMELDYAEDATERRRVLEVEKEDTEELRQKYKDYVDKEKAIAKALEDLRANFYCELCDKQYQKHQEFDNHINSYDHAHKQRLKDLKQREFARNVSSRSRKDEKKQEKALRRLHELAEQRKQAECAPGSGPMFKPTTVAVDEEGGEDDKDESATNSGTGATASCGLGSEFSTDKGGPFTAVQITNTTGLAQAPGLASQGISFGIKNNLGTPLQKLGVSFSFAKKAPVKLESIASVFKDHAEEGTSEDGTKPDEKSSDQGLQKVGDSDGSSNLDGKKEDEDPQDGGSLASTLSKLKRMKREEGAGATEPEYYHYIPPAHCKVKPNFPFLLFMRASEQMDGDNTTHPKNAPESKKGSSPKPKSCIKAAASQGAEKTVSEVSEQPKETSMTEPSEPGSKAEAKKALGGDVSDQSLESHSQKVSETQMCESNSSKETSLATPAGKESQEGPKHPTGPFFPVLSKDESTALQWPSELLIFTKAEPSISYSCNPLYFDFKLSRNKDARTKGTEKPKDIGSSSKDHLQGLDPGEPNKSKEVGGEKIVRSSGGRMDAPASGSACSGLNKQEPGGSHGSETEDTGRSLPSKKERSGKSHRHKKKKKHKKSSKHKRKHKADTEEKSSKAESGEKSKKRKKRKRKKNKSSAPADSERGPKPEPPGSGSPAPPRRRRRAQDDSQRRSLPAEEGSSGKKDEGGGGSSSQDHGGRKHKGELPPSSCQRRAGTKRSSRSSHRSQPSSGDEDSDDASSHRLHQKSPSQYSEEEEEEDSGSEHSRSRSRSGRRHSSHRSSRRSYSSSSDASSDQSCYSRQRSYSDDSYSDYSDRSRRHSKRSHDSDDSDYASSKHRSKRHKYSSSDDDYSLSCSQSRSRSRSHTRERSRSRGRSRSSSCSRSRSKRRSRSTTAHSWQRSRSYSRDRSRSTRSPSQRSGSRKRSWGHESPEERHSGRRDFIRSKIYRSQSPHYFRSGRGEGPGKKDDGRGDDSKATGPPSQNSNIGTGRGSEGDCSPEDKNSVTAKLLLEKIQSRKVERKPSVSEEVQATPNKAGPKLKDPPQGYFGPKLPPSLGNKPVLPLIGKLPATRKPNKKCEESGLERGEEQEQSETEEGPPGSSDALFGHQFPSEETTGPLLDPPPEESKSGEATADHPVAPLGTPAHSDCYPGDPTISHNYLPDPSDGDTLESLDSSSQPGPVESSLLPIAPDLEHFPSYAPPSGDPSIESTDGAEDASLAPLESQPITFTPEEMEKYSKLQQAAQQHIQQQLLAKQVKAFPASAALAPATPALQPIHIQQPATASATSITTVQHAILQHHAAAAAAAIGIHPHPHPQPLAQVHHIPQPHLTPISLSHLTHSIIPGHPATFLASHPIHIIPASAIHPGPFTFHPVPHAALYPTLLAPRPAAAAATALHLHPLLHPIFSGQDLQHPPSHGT
UniProt Q9UKX7: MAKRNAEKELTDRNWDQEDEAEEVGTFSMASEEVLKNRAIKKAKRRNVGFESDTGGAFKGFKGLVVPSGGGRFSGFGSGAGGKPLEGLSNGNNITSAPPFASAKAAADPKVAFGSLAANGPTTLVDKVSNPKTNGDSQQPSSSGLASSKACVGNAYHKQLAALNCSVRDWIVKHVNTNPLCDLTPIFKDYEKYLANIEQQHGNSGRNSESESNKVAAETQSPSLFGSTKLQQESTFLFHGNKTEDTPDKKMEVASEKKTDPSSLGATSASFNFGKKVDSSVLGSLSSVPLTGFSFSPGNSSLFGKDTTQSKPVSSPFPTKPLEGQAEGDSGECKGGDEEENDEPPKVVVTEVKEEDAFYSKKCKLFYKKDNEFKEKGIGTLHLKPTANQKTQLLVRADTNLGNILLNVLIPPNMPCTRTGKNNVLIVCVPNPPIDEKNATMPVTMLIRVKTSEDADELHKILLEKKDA
UniProt Q9UHR5: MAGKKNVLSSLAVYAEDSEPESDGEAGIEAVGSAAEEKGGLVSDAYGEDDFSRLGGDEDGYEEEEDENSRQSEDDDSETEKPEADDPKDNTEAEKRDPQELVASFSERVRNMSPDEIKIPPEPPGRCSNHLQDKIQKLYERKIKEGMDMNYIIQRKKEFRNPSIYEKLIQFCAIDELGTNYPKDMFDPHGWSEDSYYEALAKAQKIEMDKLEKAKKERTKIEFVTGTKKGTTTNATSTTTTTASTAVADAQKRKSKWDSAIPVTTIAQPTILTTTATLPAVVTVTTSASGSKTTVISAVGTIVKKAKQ
UniProt Q9Y383: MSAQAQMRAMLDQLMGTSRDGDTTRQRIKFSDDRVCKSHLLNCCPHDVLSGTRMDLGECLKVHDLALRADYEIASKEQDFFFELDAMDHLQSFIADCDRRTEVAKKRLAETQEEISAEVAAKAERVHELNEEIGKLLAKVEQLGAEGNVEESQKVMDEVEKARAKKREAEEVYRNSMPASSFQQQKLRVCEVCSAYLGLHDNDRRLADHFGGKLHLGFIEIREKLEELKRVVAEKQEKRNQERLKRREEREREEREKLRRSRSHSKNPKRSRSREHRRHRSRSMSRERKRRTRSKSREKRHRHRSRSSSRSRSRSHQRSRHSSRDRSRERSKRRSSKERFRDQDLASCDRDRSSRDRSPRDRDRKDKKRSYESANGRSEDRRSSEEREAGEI
UniProt Q9ULC4: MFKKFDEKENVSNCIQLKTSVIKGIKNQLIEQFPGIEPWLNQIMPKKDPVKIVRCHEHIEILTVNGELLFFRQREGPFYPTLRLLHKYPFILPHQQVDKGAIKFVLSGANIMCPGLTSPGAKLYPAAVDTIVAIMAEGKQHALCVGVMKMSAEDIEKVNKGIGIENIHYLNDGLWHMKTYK
UniProt Q9Y265, whole entry, looked up: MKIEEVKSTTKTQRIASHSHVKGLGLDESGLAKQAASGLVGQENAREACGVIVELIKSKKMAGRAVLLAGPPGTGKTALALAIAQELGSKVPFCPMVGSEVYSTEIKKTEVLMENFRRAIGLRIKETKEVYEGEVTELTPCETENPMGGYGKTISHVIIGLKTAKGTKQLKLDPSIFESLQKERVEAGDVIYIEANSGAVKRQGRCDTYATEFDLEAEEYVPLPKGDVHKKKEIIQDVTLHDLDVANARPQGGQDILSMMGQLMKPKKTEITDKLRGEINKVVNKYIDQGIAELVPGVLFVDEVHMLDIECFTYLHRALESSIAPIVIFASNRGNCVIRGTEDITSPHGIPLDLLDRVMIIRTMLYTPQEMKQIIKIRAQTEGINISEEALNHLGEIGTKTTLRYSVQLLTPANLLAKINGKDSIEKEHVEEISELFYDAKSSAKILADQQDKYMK
UniProt Q9UHW5, whole entry, looked up: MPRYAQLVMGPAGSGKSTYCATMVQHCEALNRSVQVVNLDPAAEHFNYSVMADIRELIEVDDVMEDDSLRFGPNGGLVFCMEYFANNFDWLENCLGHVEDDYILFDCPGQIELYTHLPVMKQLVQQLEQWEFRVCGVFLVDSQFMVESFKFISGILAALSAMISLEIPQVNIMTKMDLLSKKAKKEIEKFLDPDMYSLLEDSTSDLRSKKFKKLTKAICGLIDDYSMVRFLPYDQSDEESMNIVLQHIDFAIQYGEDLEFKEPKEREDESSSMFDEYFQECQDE
UniProt Q9Y371: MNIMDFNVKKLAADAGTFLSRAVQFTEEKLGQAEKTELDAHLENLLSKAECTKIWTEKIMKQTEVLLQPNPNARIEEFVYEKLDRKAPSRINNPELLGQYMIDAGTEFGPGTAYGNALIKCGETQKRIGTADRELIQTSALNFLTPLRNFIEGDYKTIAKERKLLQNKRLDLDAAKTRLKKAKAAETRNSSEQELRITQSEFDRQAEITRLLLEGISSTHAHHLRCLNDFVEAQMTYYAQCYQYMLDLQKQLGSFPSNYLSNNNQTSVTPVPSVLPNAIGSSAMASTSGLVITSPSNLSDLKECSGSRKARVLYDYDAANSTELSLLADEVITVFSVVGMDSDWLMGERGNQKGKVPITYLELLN

Compound: COC(=O)/C=C/c1ccccc1 [methyl cinnamate]
Test: log2 ratio of iodoacetamide-alkyne labeling of the cysteine site, DMSO over compound (competition); higher = stronger covalent engagement of the cysteine by the compound, active = 1 or more
Settings: 500 µM; treatment time 1 h; system: HEK293T cell lysate
Summary of the method: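 Reporter intensities give each cysteine's log2 competition ratio as the mean of control channels over the mean of compound channels. The samples were HEK293T lysate (2 mg/mL) given vehicle or electrophile (500 µM, 1 h, ambient temperature), then iodoacetamide alkyne (1 h), followed by click coupling to sCIP-TMT reagents, pooling, trypsin digestion overnight at 37 °C, streptavidin enrichment, acid elution, Orbitrap Eclipse LC-MS/MS with FAIMS and FragPipe quantification. Duplicate channels and three replicates were run, and cysteines quantified in only one replicate were discarded.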

Target | log2 ratio of iodoacetamide-alkyne labeling
RASAL2 C360 (UniProt Q9UJF2) | inactive: -0.302
VDAC3 C36 (UniProt Q9Y277) | inactive: 0.191
RRP7A C82 (UniProt Q9Y3A4) | inactive: 0.216
PSME2 C91 (UniProt Q9UL46) | inactive: 0.304
HECTD1 C369 (UniProt Q9ULT8) | inactive: 0.274
GNE C357 (UniProt Q9Y223) | inactive: 0.0402
STX8 C14 (UniProt Q9UNK0) | inactive: -0.0259
GPATCH8 C569 (UniProt Q9UKJ3) | inactive: 0.33
AGTPBP1 C567 (UniProt Q9UPW5) | inactive: 0.182
NUP50 C165 (UniProt Q9UKX7) | inactive: 0.143
SAP30BP C172 (UniProt Q9UHR5) | inactive: 0.0983
HECTD1 C2415 (UniProt Q9ULT8) | inactive: 0.0163
LUC7L2 C97 (UniProt Q9Y383) | inactive: -0.353
MCTS1 C113 (UniProt Q9ULC4) | inactive: 0.0072
RUVBL1 C94 (UniProt Q9Y265) | inactive: -0.042
MRPS18C C90 (UniProt Q9Y3D5) | inactive: -0.0815
LEMD3 C346 (UniProt Q9Y2U8) | inactive: 0.335
GPN3 C281 (UniProt Q9UHW5) | inactive: 0.185
SH3GLB1 C121 (UniProt Q9Y371) | inactive: 0.25
NUP50 C181 (UniProt Q9UKX7) | inactive: -0.234
MTMR6 C214 (UniProt Q9Y217) | inactive: -0.166

As a working copy, some entries already given:
Target | log2 ratio of iodoacetamide-alkyne labeling
MRPS18C C90 (UniProt Q9Y3D5) | inactive: -0.0815
LEMD3 C346 (UniProt Q9Y2U8) | inactive: 0.335
